PubChem BioAssay AID504808, Drosophila RNAi Screening Center, 2011

Purpose: 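Genes whose loss lifts activity of an E2F-responsive reporter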 (primary screen)
Cell system: Drosophila S2 cells
Reagent: long dsRNA against Drosophila genes
Detection: 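Firefly luciferase driven by E2F sites, normalised to Renilla luciferase on the same minimal promoter, measured by plate reader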
Direction: E2F firefly: higher = more E2F reporter activity; Renilla normaliser: higher = more normaliser reporter signal
Call rule: 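Called active if the normalised E2F reporter went up by over 50%; the cutoff is arbitrary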
In all, the deposit lists about 21,000 reagents; shown is an unselected part of those with a known target gene and a result. In the full data, 18 (0.084%) got an active call. 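Raw counts without plate normalisation, one of two replicates; the ratio scores behind the calls were not deposited.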 The numbers tell different reagents against one gene apart. A plus sign joins genes that one reagent is predicted to hit. Reagent sequences are not shown. The record does not give: the amount of reagent, the time to read-out.

Cap-D3 + tomb — E2F firefly, rep 1 = 1.73e5; Renilla normaliser, rep 1 = 6021; activity call = inactive
bcd + CR14578 — E2F firefly, rep 1 = 1.37e5; Renilla normaliser, rep 1 = 6252; activity call = inactive
CG7408 — E2F firefly, rep 1 = 1.72e5; Renilla normaliser, rep 1 = 9007; activity call = inactive
CG6923 — E2F firefly, rep 1 = 77904; Renilla normaliser, rep 1 = 3556; activity call = inactive
Cdk12 — E2F firefly, rep 1 = 70225; Renilla normaliser, rep 1 = 3526; activity call = inactive
CG40198 — E2F firefly, rep 1 = 70806; Renilla normaliser, rep 1 = 6070; activity call = inactive
Tfb1 — E2F firefly, rep 1 = 157; Renilla normaliser, rep 1 = 38; activity call = inactive
CG12056 — E2F firefly, rep 1 = 7572; Renilla normaliser, rep 1 = 864; activity call = inactive
CG31019 — E2F firefly, rep 1 = 84383; Renilla normaliser, rep 1 = 2415; activity call = inactive
CG13230 — E2F firefly, rep 1 = 93857; Renilla normaliser, rep 1 = 4187; activity call = inactive
CG12209 — E2F firefly, rep 1 = 1.41e5; Renilla normaliser, rep 1 = 4506; activity call = inactive
CG17493 — E2F firefly, rep 1 = 97841; Renilla normaliser, rep 1 = 4465; activity call = inactive
Zip42C.2 — E2F firefly, rep 1 = 1.15e5; Renilla normaliser, rep 1 = 4216; activity call = inactive
CG14589 — E2F firefly, rep 1 = 1.14e5; Renilla normaliser, rep 1 = 4740; activity call = inactive
Not11 — E2F firefly, rep 1 = 1.32e5; Renilla normaliser, rep 1 = 5316; activity call = inactive
mRpL38 — E2F firefly, rep 1 = 1.68e5; Renilla normaliser, rep 1 = 6244; activity call = inactive
CG32551 — E2F firefly, rep 1 = 67241; Renilla normaliser, rep 1 = 2491; activity call = inactive
Nubpl — E2F firefly, rep 1 = 74660; Renilla normaliser, rep 1 = 3081; activity call = inactive
ATPsyndelta — E2F firefly, rep 1 = 98931; Renilla normaliser, rep 1 = 5570; activity call = inactive
hebe #1 — E2F firefly, rep 1 = 1.50e5; Renilla normaliser, rep 1 = 6474; activity call = inactive
hebe #2 — E2F firefly, rep 1 = 73164; Renilla normaliser, rep 1 = 3847; activity call = inactive
side-VI #1 — E2F firefly, rep 1 = 78262; Renilla normaliser, rep 1 = 3339; activity call = inactive
side-VI #2 — E2F firefly, rep 1 = 64524; Renilla normaliser, rep 1 = 3130; activity call = inactive
side-VI #3 — E2F firefly, rep 1 = 1.49e5; Renilla normaliser, rep 1 = 6162; activity call = inactive
side-VI #4 — E2F firefly, rep 1 = 1.23e5; Renilla normaliser, rep 1 = 5000; activity call = inactive
lky — E2F firefly, rep 1 = 1.54e5; Renilla normaliser, rep 1 = 6651; activity call = inactive
CG2063 — E2F firefly, rep 1 = 1.71e5; Renilla normaliser, rep 1 = 5559; activity call = inactive
Rbfox1 #1 — E2F firefly, rep 1 = 1.22e5; Renilla normaliser, rep 1 = 5033; activity call = inactive
Rbfox1 #2 — E2F firefly, rep 1 = 1.18e5; Renilla normaliser, rep 1 = 5972; activity call = inactive
Rbfox1 #3 — E2F firefly, rep 1 = 80628; Renilla normaliser, rep 1 = 4665; activity call = inactive

Looked up above:
side-VI #3, activity call = inactive
Cap-D3 + tomb, Renilla normaliser, rep 1 = 6021
Under “E2F firefly, rep 1”, CG13230 has 93857
Not11, activity call: inactive
For “Renilla normaliser, rep 1”, CG12056 is entered as 864
